Data published in publication PMC4899725, “The transcriptional regulator GalR self-assembles to form highly regular tubular structures” (Scientific Reports, 2016).
Where a chain is given by its changes, count along the chain named. In names and notes the source's numbering stands. Results are given in words; binding and its absence hold for the method and conditions named. Some results given as binding are weak or reduced against the parent protein; the word gives no strength. Sequences can lack the tags named with a protein.

How the values were obtained:
[1] = molecular target: GalR^T322R, hexahistidine-tagged (Escherichia coli) (UniProt P03024); experiment: light scattering; 2 uM GalR diluted from a stock in 1 M NaCl into 50 mM TrisCl pH 8 with 78-1000 mM NaCl (or 25-700 mM Na2SO4 with 78 mM NaCl); 365 nm, stirring, room temperature; dimers to aggregates at low ionic strength; both purified
[2] = molecular target: GalR^Y244F, hexahistidine-tagged (Escherichia coli) (UniProt P03024); experiment: as above
[3] = molecular target: GalR^Y244F, hexahistidine-tagged (Escherichia coli) (UniProt P03024); experiment: negative staining transmission electron microscopy; data not shown; GalR^Y244F aggregates; both purified
[4] = molecular target: GalR^N48I, hexahistidine-tagged (Escherichia coli) (UniProt P03024); experiment: light scattering; 2 uM GalR diluted from a stock in 1 M NaCl into 50 mM TrisCl pH 8 with 78-1000 mM NaCl (or 25-700 mM Na2SO4 with 78 mM NaCl); 365 nm, stirring, room temperature; dimers to aggregates at low ionic strength; both purified

B1: GalR^T322R, hexahistidine-tagged (natural protein, Escherichia coli, UniProt P03024 1-343, looked up)
chain: MATIKDVARLAGVSVATVSRVINNSPKASEASRLAVHSAMESLSYHPNANARALAQQTTETVGLVVGDVSDPFFGAMVKAVEQVAYHTGNFLLIGNGYHNEQKERQAIEQLIRHRCAALVVHAKMIPDADLASLMKQMPGMVLINRILPGFENRCIALDDRYGAWLATRHLIQQGHTRIGYLCSNHSISDAEDRLQGYYDALAESGIAANDRLVTFGEPDESGGEQAMTELLGRGRNFTAVACYNDSMAAGAMGVLNDNGIDVPGEISLIGFDDVLVSRYVRPRLTTVRYPIVTMATQAAELALALADNRPLPEITNVFSPRLVRRHSVSTPSLEASHHATSD
notes: GalR of Escherichia coli with T322R; Tetramer formation is strongly impaired in this mutant (cited); also called non-tetramerizing GalR mutant; source: expressed from vector plasmid pSEM1026 under an L-arabinose inducible promoter, purified
binding [1]: binds weakly

B2: GalR^Y244F, hexahistidine-tagged (protein, UniProt P03024 1-343)
chain: B1 chain with Y244F, R322T
binding [2]: binds
binding [3]: binds

B3: GalR^N48I, hexahistidine-tagged (natural protein, Escherichia coli, UniProt P03024 1-343, looked up)
chain: B1 chain with N48I, R322T
notes: GalR of Escherichia coli with N48I; source: expressed from vector plasmid pSEM1026 under an L-arabinose inducible promoter, purified
binding [4]: binds weakly
